Results reported in article PMC6848165, “C1R Mutations Trigger Constitutive Complement 1 Activation in Periodontal Ehlers-Danlos Syndrome” (Frontiers in Immunology, 2019).
Substitutions are numbered along the chain they refer to. No constants are given. Whether binding was seen depends on the method and setting. For some of these results: Binding can be weak; no strength is given.

How the values were obtained:
[1] = biological target: T1, C1r p.(D290G) with additional p.S654A mutation (human) (UniProt P00736); experiment: SEC; purified tetramers on Superose 6 Increase 10/300 GL, 50 mM Tris, 150 mM NaCl, pH 7.4, 2 mM CaCl2, 0.5 ml/min; both purified
T1 sequence: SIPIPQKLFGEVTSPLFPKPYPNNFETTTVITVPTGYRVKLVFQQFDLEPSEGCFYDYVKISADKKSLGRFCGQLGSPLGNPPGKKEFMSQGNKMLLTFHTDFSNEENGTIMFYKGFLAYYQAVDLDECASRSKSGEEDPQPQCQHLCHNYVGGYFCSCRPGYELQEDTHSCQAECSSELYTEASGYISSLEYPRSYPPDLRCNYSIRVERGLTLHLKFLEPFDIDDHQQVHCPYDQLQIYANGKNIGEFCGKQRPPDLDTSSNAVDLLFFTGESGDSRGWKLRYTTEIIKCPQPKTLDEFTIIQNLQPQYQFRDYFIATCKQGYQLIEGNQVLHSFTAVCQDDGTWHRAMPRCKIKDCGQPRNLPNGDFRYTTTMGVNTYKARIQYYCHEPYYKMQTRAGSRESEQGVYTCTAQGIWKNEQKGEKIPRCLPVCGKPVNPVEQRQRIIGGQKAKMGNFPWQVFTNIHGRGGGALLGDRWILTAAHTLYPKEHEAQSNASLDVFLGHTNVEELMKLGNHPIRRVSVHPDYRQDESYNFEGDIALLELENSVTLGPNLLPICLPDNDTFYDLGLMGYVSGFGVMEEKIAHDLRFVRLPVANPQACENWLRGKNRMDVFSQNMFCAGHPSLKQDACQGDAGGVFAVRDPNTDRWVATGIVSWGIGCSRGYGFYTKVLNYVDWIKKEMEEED

[2] = biological target: T2, C1r p.S654A (enzymatically inactive proenzyme C1r 'WT') (human) (UniProt P00736); experiment: as above
T2 sequence: T1 sequence with G273D

[3] = biological target: T1, C1r p.(D290G) with additional p.S654A mutation (human); experiment: SEC; purified tetramers on Superose 6 Increase 10/300 GL, 50 mM Tris, 150 mM NaCl, pH 7.4, 5 mM EDTA, 0.5 ml/min; both purified
[4] = biological target: T2, C1r p.S654A (enzymatically inactive proenzyme C1r 'WT') (human); experiment: as above

- binding [1]: binds
- binding [2]: binds
- binding [3]: no binding (only with 5 mM EDTA)
- binding [4]: no binding (only with 5 mM EDTA)
Substance: C1s (proenzyme, WT) (human)
